## Small-molecule microarray binding calls

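Each compound is printed as two spots on a slide made to bind it covalently, so it has no test concentration; the read-out is fluorescence of the bound, labelled oligonucleotide. The data file lists only calls. An earlier report of the laboratory on the PreQ1, TPP and SAM-II riboswitches (doi:10.1038/s41467-019-09493-3) used 1 µM RNA for 2 h and required a mean Z-score above 3 (spot signal-to-noise against the whole library), a score well above that on a control array, and duplicate spots agreeing (coefficient of variation under 100); it then also set aside compounds that hit other targets, which this list keeps. The cut-offs behind this list may differ. These are primary screening calls, not affinities; a compound without a hit may have attached poorly or may still bind in solution.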 “hit” means called a hit, “none” means screened and not called a hit. Compounds were drawn at random from those tested, without regard to their results. A dash means that no call is listed here.

Targets, with sequences 5′ to 3′:
TPP: TPP riboswitch RNA three-way junction, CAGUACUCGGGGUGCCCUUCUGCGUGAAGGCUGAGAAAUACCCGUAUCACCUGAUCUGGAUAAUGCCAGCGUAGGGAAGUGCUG. About 160 hits among about 24,000 compounds.
PreQ1: PreQ1 riboswitch RNA pseudoknot, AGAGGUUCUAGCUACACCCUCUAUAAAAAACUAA. From B. subtilis. About 170 hits among about 24,000 compounds.
SAM-II: SAM-II riboswitch RNA pseudoknot, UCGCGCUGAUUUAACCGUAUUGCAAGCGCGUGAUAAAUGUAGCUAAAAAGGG. About 200 hits among about 21,000 compounds.

SMILES | TPP | PreQ1 | SAM-II
CCOc1ccc(OCc2nc3c(c(=O)[nH]2)CCNC3)cc1 | none | none | none
O=C(O)c1ccc2[nH]c(CCCO)nc2c1 | none | none | none
COc1ccccc1N1CCN(C(=O)[C@@H]2[C@@H]3CC[C@@H](C3)[C@@H]2N)CC1=O | none | none | none
Cc1ccc(Nc2nc3ccccc3n3cnnc23)c(C)c1 | none | none | none
O=C(COc1ccc([N+](=O)[O-])cc1Cl)N1CCOCC1 | none | none | none
CCOC(=O)Nc1cc2c(c(N)n1)N=C(c1ccccc1)CN2 | none | none | none
Cn1c(-c2ccccc2)cnc1NCc1cccc(Br)c1 | none | none | none
O=C(NCc1cc(-c2ccco2)on1)c1cn(CCC2CCCCN2)nn1 (centres undefined) | none | none | none
Cc1cccc(OCC(O)Cn2c(C3CC3)nc3ccccc32)c1 (centres undefined) | none | none | -
COc1ccc(-c2cc3nc(C)cc(Nc4ccc(F)cc4)n3n2)cc1OC | none | none | -
NCC1CCC(C(=O)O)CC1 (centres undefined) | none | none | none
Cc1cc2nc3ccc(N(C)C)cc3nc2cc1N.Cl | none | none | none
N#CC1=C(N)Oc2c(ccc3ccccc23)C1c1cc(F)ccc1F (centres undefined) | none | none | none
O=C(Nc1cccnc1)c1ccc(-c2ccccc2CO)o1 | none | none | none
NC(=O)c1ccc(NC(=O)CCNC[C@H]2CCCC[C@H]2O)cc1 | none | hit | none
Brc1ccc(-c2nnc3sc(CNC4CCCCC4)cn23)cc1 | none | none | none
CCN(CC(O)Cn1c2ccccc2c2ccccc21)S(=O)(=O)c1ccc(F)cc1 (centres undefined) | none | none | none
COc1ncnc(NS(=O)(=O)c2ccc(N)cc2)c1OC | none | none | none
Cc1cc(-c2ccsc2)nc(N)n1 | none | none | none
Cl.OCCN1CCN(c2ccccc2F)CC1 | none | none | none
O=C(c1cccs1)N1CC[C@@H](c2ccc3ccccc3c2)[C@H](O)C1 | none | none | none
CC(C)CCNc1cc(Cl)nc(N)n1 | none | none | none
Cc1nc(N)nc(N2CCCN(S(=O)(=O)N3CCCCC3)CC2)c1C | none | none | none
Oc1cc(-c2nc(-c3ccccc3)[nH]c2-c2ccncc2)ccc1Cl | none | none | none
Cc1nnc(-c2ccccc2-c2cncc(N)c2)o1 | none | none | none
CCCOc1ccccc1Nc1nc(C(=O)OCC)nc2ccccc12 | none | none | none
CCOC(=O)c1sc(NCCOc2cccc(C)c2)nc1C | none | none | none
O=C1CCC2(c3ccccc3)Nc3ccccc3CN12 (centres undefined) | none | none | none
CCC1(CC)Cc2ccccc2-c2nc(NCCCO)[nH]c(=O)c21 | none | none | none
Cl.Cl.OC(COCCC12CC3CC(CC(C3)C1)C2)CN1CCN(c2ccccc2)CC1 (centres undefined) | none | none | none
CCc1ccccc1OCCN(C)C(=O)CSc1nnc(N)s1 | none | none | none
CC(O)CCC(=O)NCCc1nc2ccccc2n1Cc1ccccc1F (centres undefined) | none | none | -
Nc1cc(C(=O)O)ccc1Br | none | none | none
Cn1c(C(=O)NCc2cc3n(n2)CCCNC3)cc2ccc(Cl)cc21 | none | none | none
Cc1nn(CCNC(=O)c2cccc(C3CCCNC3)c2)c(C)c1Cl (centres undefined) | none | none | none
Clc1ccc2nc(-c3ccccn3)c(Nc3ccccc3)n2c1 | none | none | none
CCN(CC)C(=O)[C@@H]1C[C@H](N)CN1C(=O)c1nc2nc(C)cc(C)n2n1 | none | none | none
O=C(c1cccs1)N1C[C@H]2COc3ccccc3C[C@@]2(CO)C1 | none | none | none
CC(Cn1cnc2ccccc2c1=O)NCC1=CCCCC1 (centres undefined) | none | none | none
CCOc1ccc(NCC(O)COc2ccc(OCC(O)CNc3ccc(OCC)cc3)cc2)cc1 (centres undefined) | none | none | none
N#Cc1cccc(Nc2c3c(nc4ccccc24)CCC3)c1 | none | none | none
Cc1c(C)n(CC(O)CNCCCO)c2ccccc12.O=C(O)C(=O)O (centres undefined) | none | none | none
OCc1nnc2c3ccccc3c(-c3ccc(Cl)cc3)nn12 | none | none | none
COC(=O)c1cncc(N2CC[C@H](CO)[C@H](O)C2)n1 | none | none | none
CNC(=O)c1sc(N2CCCC2)nc1N | none | none | none
CCC(Nc1cccc(OC)c1)C(=O)NCCN1CCNC1=O (centres undefined) | none | none | none
CC1(C)O[C@@H]2C[C@H]3[C@@H]4CCC5=CC(=O)C=C[C@]5(C)[C@H]4[C@@H](O)C[C@]3(C)[C@]2(C(=O)CO)O1 | none | none | none
O=C(c1ccccc1C1CCNC1)N1CCc2[nH]nc(C3CCC3)c2C1 (centres undefined) | none | none | none
Nc1nc(CN2CCCCCC2)nc(Nc2ccc(F)cc2)n1 | hit | none | hit
Cc1ccsc1CNc1cccc(C(=O)N[C@H](C)C(N)=O)c1 | none | none | none
CN(C(=O)Nc1ccc(OCc2ccco2)cc1)[C@H]1COC[C@@H]1O | none | none | none
Cc1nc(C(c2cccc(F)c2)N(C)C)n(CCO)n1 (centres undefined) | none | none | none
CC(C)c1cc(C(=O)N2CCNC(c3ccccc3)C2)nc2ncnn12 (centres undefined) | none | none | none
COc1cc2ncnc(Nc3ccc(F)c(Cl)c3)c2cc1OCCCN1CCOCC1 | none | none | none
COc1cccc([C@H]2CN(C(=O)c3cc(C)on3)C[C@@H]2N)c1 | none | none | none
CC(=O)c1ccc(Nc2nc(-c3ccncc3)cs2)cc1 | none | none | none
Cc1ccc(NC(=O)Nc2cc(C(F)(F)F)ccc2F)cc1Nc1ccc2c(c1)NC(=O)C2=Cc1ccc[nH]1 | none | none | none
CCCn1cc(C(=O)N2CCN(Cc3ccccc3CO)CC2)c(C)n1 | none | none | none

The first 4 entries again:

| SMILES | TPP | PreQ1 | SAM-II |
|---|---|---|---|
| `CCOc1ccc(OCc2nc3c(c(=O)[nH]2)CCNC3)cc1` | none | none | none |
| `O=C(O)c1ccc2[nH]c(CCCO)nc2c1` | none | none | none |
| `COc1ccccc1N1CCN(C(=O)[C@@H]2[C@@H]3CC[C@@H](C3)[C@@H]2N)CC1=O` | none | none | none |
| `Cc1ccc(Nc2nc3ccccc3n3cnnc23)c(C)c1` | none | none | none |

Calls as published in the ROBIN set (doi:10.1002/anie.202211358).